We go through 1 sequence from paper PMC3834833.

Amino acid sequences for entries named in this document (tags omitted). A change or cut given only in a name is not applied to a line headed by its entry.
UniProt Q15631: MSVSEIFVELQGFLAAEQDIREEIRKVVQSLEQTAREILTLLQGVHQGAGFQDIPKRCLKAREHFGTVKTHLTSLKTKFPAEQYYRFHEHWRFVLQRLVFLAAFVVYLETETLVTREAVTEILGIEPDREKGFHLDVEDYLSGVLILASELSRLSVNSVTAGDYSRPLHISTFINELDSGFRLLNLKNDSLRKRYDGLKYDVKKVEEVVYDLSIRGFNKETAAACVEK

The data set concerns the target translin (wild type) (Homo sapiens) (UniProt Q15631). In words: not stated (cited value). To be noted: SAXS: 10 mM Tris-HCl pH 8.0, 100 mM NaCl, 0.1 mM EDTA, 1 mM DTT, 5% glycerol; complex incubated 20 min at 25 C, measured at 10 C; recombinant protein; residues 1-228; protein details: N-terminal His6 (pQE-9).

The exact form of at least one protein or probe is not confirmed.

In the case of GUGUGUGUGUGUGUGUGUGUGUGU [(GU)12], the dissociation constant Kd is 2 nM.

For orientation: Kd means the constant that tells how readily two partners part at equilibrium.
